Laboratory results reported in patent publication US20220098315A1 (Novartis, published 2022).
No constants are given. Whether binding was seen depends on the method and setting. Some entries that bind do so weakly or less than the wild type.

The chains behind the UniProt entries cited, without tags or fusion partners. Where a name states a change or a piece, a line headed by the entry shows the natural chain unless it says otherwise. A line that says so, or that is headed by a name, gives the form on record, which may keep a tag or linker.
cynomolgus CD40 on B cells (G7PG38, form named): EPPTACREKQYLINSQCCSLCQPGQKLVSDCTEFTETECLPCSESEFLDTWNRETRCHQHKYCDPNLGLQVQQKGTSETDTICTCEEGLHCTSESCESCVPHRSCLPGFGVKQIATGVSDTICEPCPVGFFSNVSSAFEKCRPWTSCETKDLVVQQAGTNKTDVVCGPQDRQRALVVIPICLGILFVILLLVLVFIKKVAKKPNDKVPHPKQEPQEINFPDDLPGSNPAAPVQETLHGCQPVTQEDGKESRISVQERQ
rhesus CD40 on B cells (F6SNI1, form named): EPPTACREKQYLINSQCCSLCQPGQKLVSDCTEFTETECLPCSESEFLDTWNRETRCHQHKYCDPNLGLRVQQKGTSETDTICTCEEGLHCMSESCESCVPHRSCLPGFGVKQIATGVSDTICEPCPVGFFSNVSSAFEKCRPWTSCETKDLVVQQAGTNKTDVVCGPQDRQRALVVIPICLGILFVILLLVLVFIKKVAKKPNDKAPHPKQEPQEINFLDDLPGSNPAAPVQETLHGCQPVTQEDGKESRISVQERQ

What was measured:
[1] = molecular target: cynomolgus CD40 on B cells (cynomolgus) (UniProt G7PG38); test: flow cytometry on B cells
[2] = molecular target: rhesus CD40 on B cells (rhesus) (UniProt F6SNI1); test: flow cytometry on B cells
[3] = molecular target: cynomolgus CD40 on B cells (cynomolgus) (UniProt G7PG38); test: refers to the cellular binding data above it
[4] = molecular target: rhesus CD40 on B cells (rhesus) (UniProt F6SNI1); test: refers to the cellular binding data above it
[5] = molecular target: cynomolgus CD40 on B cells (cynomolgus) (UniProt G7PG38); test: in vivo: single intravenous dose of CFZ533 (calculated 16.2, 18.5 and 20 mg/kg) in three cynomolgus monkeys; CD40 occupancy on peripheral B cells (free and total CD40) over time, flow cytometry [ii]

Measured: binding

B1: CFZ533 (antibody, human IgG1, kappa, N297A, V domains shown)
VH: QVQLVESGGGVVQPGRSLRLSCAASGFTFSSYGMHWVRQAPGKGLEWVAVISYEESNRYHADSVKGRFTISRDNSKITLYLQMNSLRTEDTAVYYCARDGGIAAPGPDYWGQGTLVTVSS
VL: DIVMTQSPLSLTVTPGEPASISCRSSQSLLYSNGYNYLDWYLQKPGQSPQVLISLGSNRASGVPDRFSGSGSGTDFTLKISRVEAEDVGVYYCMQARQTPFTFGPGTKVDIRR
binds: [1] | [2] | [3] | [4] | [5]
